Measured values published in paper doi:10.1101/059964.
No constants are given. Whether binding was seen depends on the method and setting. Binding seen in cells or lysates may run through a third protein. Here binding means that the protein was enriched with, or labelled near, the bait; the list need not be complete. No binding means not detected with the bait.

Chains of the proteins cited; added tags and fusions are not shown.
UniProt P25490: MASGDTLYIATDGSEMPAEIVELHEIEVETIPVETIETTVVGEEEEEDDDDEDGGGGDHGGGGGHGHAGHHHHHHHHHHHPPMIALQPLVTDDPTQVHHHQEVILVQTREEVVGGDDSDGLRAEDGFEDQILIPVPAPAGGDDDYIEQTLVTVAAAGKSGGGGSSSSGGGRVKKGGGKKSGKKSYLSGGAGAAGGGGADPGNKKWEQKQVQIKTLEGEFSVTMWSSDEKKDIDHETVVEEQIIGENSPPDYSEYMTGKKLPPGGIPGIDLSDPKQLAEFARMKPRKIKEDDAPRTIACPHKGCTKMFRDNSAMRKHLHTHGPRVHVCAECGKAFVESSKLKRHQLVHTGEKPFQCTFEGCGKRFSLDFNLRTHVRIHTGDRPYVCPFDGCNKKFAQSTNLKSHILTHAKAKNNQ

Target: YY1 (human) (UniProt P25490)
Assay: affinity purification with mass spectrometry

B1: SMBT1 (protein, UniProt Q9UHJ3 1-866)
chain: MNGEQQLDADAGSGMEEVELSWEDYLEETGSTAVPYGSFKHVDTRLQNGFAPGMKLEVAVRTDPETYWVATVITTCEQLLLLRYDGYGEDRRADFWCDIRKADLYPIGWCEQNKKTLEAPEGIRDKVSDWDEFLRQTLIGACSPPVPLLEGLRNGRNPLDLIAPGSRLECQAFQDSLSTWIVTVVENIGGRLKLRYEGLESSDNYEHWLYYLDPFLHHVGWAAQQGYELQPPSAIRHLKNEAEWQEILAKVKEEEEEPLPSYLFKDKQVIGIHTFSVNMKLEAVDPWSPFGISPATVVKVFDEKYFLVEMDDLRPENHARRSFVCHADSPGIFPVQWSLKNGLHISPPPGYPSQDFDWADYLKQCGAEAAPQRCFPPLISEHEFKENMKLEAVNPILPEEVCVATITAVRGSYLWLQLEGSKKPIPECIVSVESMDIFPLGWCETNGHPLSTPRRARVYKQRKIAVVQPEKQVPSSRTVHEGLRNQELNSTESVMINGKYCCPKIYFNHRCFSGPYLNKGRIAELPQCVGPGNCVLVLREVLTLLINAAYKPSRVLRELQLDKDSVWHGCGEVLKAKYKGKSYRATVEIVKTADRVTEFCRQTCIKLECCPNLFGPRMVLDKCSENCSVLTKTKYTHYYGKKKNKRIGRPPGGHSNLACALKKASKRRKRRKNVFVHKKKRSSASVDNTPAGSPQGSGGEDEDDPDEGDDDSLSEGSTSEQQDELQEESEMSEKKSCSSSPTQSEISTSLPPDRQRRKRELRTFSFSDDENKPPSPKEIRIEVAERLHLDSNPLKWSVADVVRFIRSTDCAPLARIFLDQEIDGQALLLLTLPTVQECMDLKLGPAIKLCHHIERIKFAFYEQFAN
  binding: no binding
